Consider two molecules from publication PMC6604950.

Protein sequences, listed by entry. Tags and fused reporters are not part of them.
UniProt P72772: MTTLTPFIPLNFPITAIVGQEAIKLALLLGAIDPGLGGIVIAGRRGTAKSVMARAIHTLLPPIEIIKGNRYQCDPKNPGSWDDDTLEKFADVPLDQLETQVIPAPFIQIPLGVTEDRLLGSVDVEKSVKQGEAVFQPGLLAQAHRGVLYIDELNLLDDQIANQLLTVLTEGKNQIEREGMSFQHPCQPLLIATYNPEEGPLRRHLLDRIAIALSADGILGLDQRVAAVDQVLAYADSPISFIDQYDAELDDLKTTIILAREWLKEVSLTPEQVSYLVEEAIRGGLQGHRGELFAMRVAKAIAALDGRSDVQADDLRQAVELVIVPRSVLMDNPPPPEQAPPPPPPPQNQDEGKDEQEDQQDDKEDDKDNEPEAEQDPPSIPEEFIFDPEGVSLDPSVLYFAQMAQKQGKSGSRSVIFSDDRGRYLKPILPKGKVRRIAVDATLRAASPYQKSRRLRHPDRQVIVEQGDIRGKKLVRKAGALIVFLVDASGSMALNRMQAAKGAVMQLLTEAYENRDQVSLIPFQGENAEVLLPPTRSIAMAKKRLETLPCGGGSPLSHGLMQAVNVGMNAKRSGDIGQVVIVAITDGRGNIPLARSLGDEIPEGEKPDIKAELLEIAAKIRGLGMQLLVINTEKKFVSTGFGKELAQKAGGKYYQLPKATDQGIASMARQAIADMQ

These are yes or no findings as the source states them, for the method shown. Binding seen in cells or lysates may run through a third protein. Some results given as binding are weak or reduced against the parent protein; the word gives no strength.

The target in the assay is FLAG-ChlD (Synechocystis ChlD with an N-terminal 3xFLAG tag) (Synechocystis sp. PCC 6803) (UniProt P72772). The assay is described as follows: co-IP; anti-FLAG-M2 agarose column; soluble and 1.5% β-DDM-solubilised membrane fractions of Synechocystis; buffer A (25 mM sodium phosphate, 50 mM NaCl, 10 mM MgCl2, 10% glycerol, pH 7.4; +0.25% β-DDM for membranes); eluted with 3xFLAG peptide; immunoblot.

B1: ChlH (endogenous, Synechocystis) (protein, UniProt P73020 1-1331)
chain: MFTNVKSTIRRVDPEALNGRQLLKVVYVVLESQYQSALSAAVRNINRTNSSLAIQLTGYLIEELRDPENYANFKHDVSEANLFIASLIFIEDLADKVVEAVTPYRDNLDAAIVFPSMPQVMRLNKMGSFSMAQLGQSKSAIAQFMKKRKENSSGAGFQDAMLKLLRTLPTVLKYLPVEKAQDARNFMLSFQYWLGGSQENLENFLLMLTDKYVYPDLGLDKLVNYQEPVVYPDMGIWHPLSMQMFENVKDYLEWYNQRPDISEDLKDPLAPCIGLIMQRTHLVTGDDAHYVGMVQELEAMGARVICVFSGGLDFSKPVNEYFWDKSVNGVEPLPIVDAVVSLTGFALVGGPARQDHPRAIESLKKLNRPYMCALPLVFQTTEEWEASDLGLHPIQVALQIAIPELDGAIEPIILSGRDGSTGRAIALQDRLEAIAQRAMKWANLRKKPKLDKKVAITVFSFPPDKGNVGTAAYLDVFGSIYEVMKGLQGNGYDVQDLPGSAKELMEAVIHDAQAQYNSPELNIAHRMSVEQYERLTPYSVRLEENWGKPPGHLNSDGQNLLIYGKEFGNVFIGVQPTFGYEGDPMRLLFSRSASPHHGFAAYYTYLNHIWKADAVLHFGTHGSLEFMPGKQMGMSGECYPDNLIGTIPNLYYYAANNPSEATIAKRRGYASTISYLTPPAENAGLYKGLQELNELIGSYQTLKDSGRGIQIVNTIMDQARICNLDQDVNLPDINAEEMDQGQRDTIVGSVYRKLMEIESRLLPCGLHVIGQPPSAEEAIATLVNIASLDREDEGIWALPTLIAESIGRNMEEIYRNSDKGILADVELLQDITLATRAAVAALVQEQINADGRVSFVSKLNFFKIGKKAPWVKSLCDSGYPNVNEEKLKPLFEYLEFCLEQVCADNEFGGLLQALEGEYVLPGPGGDPIRNPNVLPTGKNIHALDPQSIPTLAAVQSAKVVVDRLLERQRAENGGNYPETIASVLWGTDNIKTYGESLAQIMWMVGAKPVPDALGRVNKIELVPLEELGRPRIDVVVNCSGVFRDLFINQMNLLDQAVKLAAEADEPLEMNFVRKHALEQAEEMGIGVREAATRIFSNASGSYSSNVNLAVENSSWEDESELQEMYLKRKSFAFNSDNPGMMDQNRDMFERALKTADATFQNLDSSEISLTDVSHYFDSDPTKLISTLRDDGKAPAAYIADTTTANAQVRTLSETVRLDARTKLLNPKWYEGMLSHGYEGVRELSKRLVNTMGWSATAGAVDNWVYEDANSTFIKDEEMCKRLMDLNPNSFRRMVSTLLEVNGRGYWETSDENLERLQELYQEVEDRIEGVE
For B1, the binding entry is “binds”.

B2: ChlI (endogenous, Synechocystis) (protein, UniProt P51634 1-357)
chain: MTATLAAPSKTRRVVFPFTAIVGQDEMKLALLLNVIDPKIGGVMIMGDRGTGKSTTIRALADLLPEIEVVANDPFNSSPSDPEMMSEEVRIRVDSQEPLSIVKKKVTMVDLPLGATEDRVCGTIDIEKALSEGVKAFEPGLLAKANRGILYVDEVNLLDDHLVDVLLDSAAGGWNTVEREGISIRHPARFVLVGSGNPEEGELRPQLLDRFGMHAEIRTVREPELRVKIVEQRTEFDQNPHPFCDQYQTEQEALQAKIVNAQNLLPQVTIDYDYRVKVSEVCAELDVDGLRGDIVTNRAAKALAAFEGRTEVTVDDISRVIVLCLRHRLRKDPLESIDSGSKVEKVFKRVFGVVDEA
Take B2: the binding entry was “binds”.
